Measured values published in PMC12711971.
Results are given in words; binding and its absence hold for the method and conditions named. Some binding calls cover weakened binding; strength is not graded here.

Biological target: PERK^T982A (UniProt Q9NZJ5)
Assay: non-reducing SDS-PAGE; A375 cells treated with DdBIC (20 uM, 5 h), lysed in 2x SDS loading buffer, no beta-mercaptoethanol, 4-12% gradient gel, western blot; total lysates and cytosolic fractions; also with OPA1 knock-down, Mito-Q, alpha-VE or hemin

binding: binds
B1: PERK^T982A (protein, UniProt Q9NZJ5 30-1116)
chain: AGRARGLPAPTAEAAFGLGAAAAPTSATRVPAAGAVAAAEVTVEDAEALPAAAGEQEPRGPEPDDETELRPRGRSLVIISTLDGRIAALDPENHGKKQWDLDVGSGSLVSSSLSKPEVFGNKMIIPSLDGALFQWDQDRESMETVPFTVESLLESSYKFGDDVVLVGGKSLTTYGLSAYSGKVRYICSALGCRQWDSDEMEQEEDILLLQRTQKTVRAVGPRSGNEKWNFSVGHFELRYIPDMETRAGFIESTFKPNENTEESKIISDVEEQEAAIMDIVIKVSVADWKVMAFSKKGGHLEWEYQFCTPIASAWLLKDGKVIPISLFDDTSYTSNDDVLEDEEDIVEAARGATENSVYLGMYRGQLYLQSSVRISEKFPSSPKALESVTNENAIIPLPTIKWKPLIHSPSRTPVLVGSDEFDKCLSNDKFSHEEYSNGALSILQYPYDNGYYLPYYKRERNKRSTQITVRFLDNPHYNKNIRKKDPVLLLHWWKEIVATILFCIIATTFIVRRLFHPHPHRQRKESETQCQTENKYDSVSGEANDSSWNDIKNSGYISRYLTDFEPIQCLGRGGFGVVFEAKNKVDDCNYAIKRIRLPNRELAREKVMREVKALAKLEHPGIVRYFNAWLEAPPEKWQEKMDEIWLKDESTDWPLSSPSPMDAPSVKIRRMDPFATKEHIEIIAPSPQRSRSFSVGISCDQTSSSESQFSPLEFSGMDHEDISESVDAAYNLQDSCLTDCDVEDGTMDGNDEGHSFELCPSEASPYVRSRERTSSSIVFEDSGCDNASSKEEPKTNRLHIGNHCANKLTAFKPTSSKSSSEATLSISPPRPTTLSLDLTKNTTEKLQPSSPKVYLYIQMQLCRKENLKDWMNGRCTIEERERSVCLHIFLQIAEAVEFLHSKGLMHRDLKPSNIFFTMDDVVKVGDFGLVTAMDQDEEEQTVLTPMPAYARHAGQVGTKLYMSPEQIHGNSYSHKVDIFSLGLILFELLYPFSTQMERVRTLTDVRNLKFPPLFTQKYPCEYVMVQDMLSPSPMERPEAINIIENAVFEDLDFPGKTVLRQRSRSLSSSGTKHSRQSNNSHSPLPSN
